Experimental data: US20110243928A1
These are yes or no findings as the source states them, for the method shown. A result given as binding can be weak or reduced; the word gives no strength.

B1: monoclonal antibody 6A1 (antibody, IgG1, V domains shown)
VH: EIQLQQSVAELVRPGASVRLSCTASGFYIKDTYMHWVIQRPEQGLEWIGTIDPANGNTKYVPKFQGKATITADTSSNTAYLRLSSLTSEDTAIYYCARSIYDDYHYDDYYAMDYWGQGTSVTVSS
VL: DVLMTQTPLSLPVSLGDQASISCRSSQNIVHINGNTYLEWYLQKPGQSPKLLIYKISDRFSGVPDRFSGSGSGTDFTLKISRVEAEDLGVYYCFQGSHVPWTFGGGTKLEIK
B2: chimaeric 6A1 (antibody, human IgG1, V domains shown)
VH: EIQLQQSVAELVRPGASVRLSCTASGFYIKDTYMHWVIQRPEQGLEWIGTIDPANGNTKYVPKFQGKATITADTSSNTAYLRLSSLTSEDTAIYYCARSIYDDYHYDDYYAMDYWGQGTSVTVSS
VL: DVLMTQTPLSLPVSLGDQASISCRSSQNIVHINGNTYLEWYLQKPGQSPKLLIYKISDRFSGVPDRFSGSGSGTDFTLKISRVEAEDLGVYYCFQGSHVPWTFGGGTKLEIK
B3: L1+A1 (antibody, human IgG1, kappa, V domains shown)
VH: QVQLVQSGAEVKKPGSSVKVSCKASGFYIKDTYMHWVRQAPGQGLEWMGTIDPANGNTKYVPKFQGRVTITADESTSTAYMELSSLRSEDTAVYYCARSIYDDYHYDDYYAMDYWGQGTLVTVSS
VL: DIVMTQSPLSLPVTPGEPASISCRSSQNIVHINGNTYLEWYLQKPGQSPRLLIYKISDRFSGVPDRFSGSGSGTDFTLKISRVEADDVGIYYCFQGSHVPWTFGQGTKLEIKR
B4: L2+A1 (antibody, human IgG1, kappa, V domains shown)
VH: QVQLVQSGAEVKKPGSSVKVSCKASGFYIKDTYMHWVRQAPGQGLEWMGTIDPANGNTKYVPKFQGRVTITADESTSTAYMELSSLRSEDTAVYYCARSIYDDYHYDDYYAMDYWGQGTLVTVSS
VL: DIVMTQSPLSLPVTPGEPASISCRSSQNIVHINGNTYLEWYLQKPGQSPRLLIYKISDRFSGVPDRFSGSGSGTDFTLKISRVEADDVGVYYCFQGSHVPWTFGQGTKLEIKR

Experiments:
[1] = molecular target: E. coli-expressed recombinant cynomolgus IL-13 (cynomolgus); experiment: Western blot after denaturing SDS-PAGE
[2] = molecular target: E. coli-expressed recombinant cynomolgus IL-13 (cynomolgus); experiment: BIAcore
[3] = molecular target: E. coli-expressed recombinant cynomolgus IL-13 (cynomolgus); experiment: sandwich ELISA, CHO supernatant and purified antibody
[4] = molecular target: E. coli-expressed recombinant cynomolgus IL-13 (cynomolgus); experiment: sandwich ELISA

Binder | binding [1] | binding [2] | binding [3] | binding [4]
B1 | binds | binds |  | 
B2 |  |  | binds | binds
B3 |  |  |  | binds
B4 |  |  |  | binds
